Measurements published in paper PMC10203710.
These are yes or no findings as the source states them, for the method shown. Binding seen in cells or lysates may run through a third protein. Some entries that bind do so weakly or less than the wild type.

Chains of the proteins cited; added tags and fusions are not shown.
UniProt Q96RY7: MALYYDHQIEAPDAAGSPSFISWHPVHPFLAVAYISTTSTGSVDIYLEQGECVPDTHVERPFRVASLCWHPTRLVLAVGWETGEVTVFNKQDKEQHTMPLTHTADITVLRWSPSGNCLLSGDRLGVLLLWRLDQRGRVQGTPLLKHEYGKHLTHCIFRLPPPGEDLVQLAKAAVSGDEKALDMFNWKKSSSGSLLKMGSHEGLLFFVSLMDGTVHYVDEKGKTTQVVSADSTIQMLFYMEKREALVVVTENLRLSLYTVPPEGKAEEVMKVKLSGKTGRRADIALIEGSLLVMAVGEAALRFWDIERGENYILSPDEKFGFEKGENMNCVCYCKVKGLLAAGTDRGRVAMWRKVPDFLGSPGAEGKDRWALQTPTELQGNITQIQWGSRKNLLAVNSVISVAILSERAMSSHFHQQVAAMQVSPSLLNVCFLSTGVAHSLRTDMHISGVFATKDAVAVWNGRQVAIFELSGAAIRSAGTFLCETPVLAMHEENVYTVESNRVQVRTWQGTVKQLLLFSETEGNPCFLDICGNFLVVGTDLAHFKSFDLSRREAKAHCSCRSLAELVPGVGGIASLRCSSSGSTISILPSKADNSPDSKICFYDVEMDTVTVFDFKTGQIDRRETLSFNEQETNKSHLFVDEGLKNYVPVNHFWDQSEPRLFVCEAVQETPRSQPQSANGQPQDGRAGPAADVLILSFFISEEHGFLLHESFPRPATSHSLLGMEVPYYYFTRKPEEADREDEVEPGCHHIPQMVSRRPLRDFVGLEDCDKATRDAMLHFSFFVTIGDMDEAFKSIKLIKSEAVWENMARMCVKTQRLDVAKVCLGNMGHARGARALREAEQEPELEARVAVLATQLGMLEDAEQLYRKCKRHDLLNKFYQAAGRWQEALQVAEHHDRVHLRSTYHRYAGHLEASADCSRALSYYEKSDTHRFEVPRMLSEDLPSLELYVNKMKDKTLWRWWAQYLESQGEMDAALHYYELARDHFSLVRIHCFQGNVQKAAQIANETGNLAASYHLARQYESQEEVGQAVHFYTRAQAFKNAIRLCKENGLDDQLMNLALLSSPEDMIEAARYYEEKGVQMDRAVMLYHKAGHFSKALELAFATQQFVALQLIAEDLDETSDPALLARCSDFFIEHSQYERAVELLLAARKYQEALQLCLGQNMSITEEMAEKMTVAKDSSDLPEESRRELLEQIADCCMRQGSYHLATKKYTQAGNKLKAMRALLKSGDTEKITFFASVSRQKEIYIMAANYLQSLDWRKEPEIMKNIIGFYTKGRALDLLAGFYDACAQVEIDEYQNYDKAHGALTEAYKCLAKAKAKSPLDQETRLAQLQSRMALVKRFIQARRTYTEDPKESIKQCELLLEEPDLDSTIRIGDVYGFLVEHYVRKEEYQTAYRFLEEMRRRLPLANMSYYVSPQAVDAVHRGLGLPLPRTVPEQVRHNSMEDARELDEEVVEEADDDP
UniProt Q96EX3: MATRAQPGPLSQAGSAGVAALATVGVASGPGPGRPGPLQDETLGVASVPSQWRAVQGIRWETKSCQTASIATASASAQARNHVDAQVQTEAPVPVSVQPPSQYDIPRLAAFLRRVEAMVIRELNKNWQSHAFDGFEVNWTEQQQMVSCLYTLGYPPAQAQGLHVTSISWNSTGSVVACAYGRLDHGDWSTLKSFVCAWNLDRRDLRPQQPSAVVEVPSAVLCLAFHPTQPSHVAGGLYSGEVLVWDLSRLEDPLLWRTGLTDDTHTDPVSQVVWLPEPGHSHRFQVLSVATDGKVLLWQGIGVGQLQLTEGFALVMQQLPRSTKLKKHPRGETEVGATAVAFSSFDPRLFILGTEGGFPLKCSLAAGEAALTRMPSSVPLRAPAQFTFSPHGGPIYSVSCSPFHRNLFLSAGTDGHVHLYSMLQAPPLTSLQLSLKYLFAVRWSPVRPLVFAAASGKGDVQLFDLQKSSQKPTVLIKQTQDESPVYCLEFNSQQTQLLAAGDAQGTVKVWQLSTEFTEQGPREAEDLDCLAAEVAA
UniProt Q8WVS4: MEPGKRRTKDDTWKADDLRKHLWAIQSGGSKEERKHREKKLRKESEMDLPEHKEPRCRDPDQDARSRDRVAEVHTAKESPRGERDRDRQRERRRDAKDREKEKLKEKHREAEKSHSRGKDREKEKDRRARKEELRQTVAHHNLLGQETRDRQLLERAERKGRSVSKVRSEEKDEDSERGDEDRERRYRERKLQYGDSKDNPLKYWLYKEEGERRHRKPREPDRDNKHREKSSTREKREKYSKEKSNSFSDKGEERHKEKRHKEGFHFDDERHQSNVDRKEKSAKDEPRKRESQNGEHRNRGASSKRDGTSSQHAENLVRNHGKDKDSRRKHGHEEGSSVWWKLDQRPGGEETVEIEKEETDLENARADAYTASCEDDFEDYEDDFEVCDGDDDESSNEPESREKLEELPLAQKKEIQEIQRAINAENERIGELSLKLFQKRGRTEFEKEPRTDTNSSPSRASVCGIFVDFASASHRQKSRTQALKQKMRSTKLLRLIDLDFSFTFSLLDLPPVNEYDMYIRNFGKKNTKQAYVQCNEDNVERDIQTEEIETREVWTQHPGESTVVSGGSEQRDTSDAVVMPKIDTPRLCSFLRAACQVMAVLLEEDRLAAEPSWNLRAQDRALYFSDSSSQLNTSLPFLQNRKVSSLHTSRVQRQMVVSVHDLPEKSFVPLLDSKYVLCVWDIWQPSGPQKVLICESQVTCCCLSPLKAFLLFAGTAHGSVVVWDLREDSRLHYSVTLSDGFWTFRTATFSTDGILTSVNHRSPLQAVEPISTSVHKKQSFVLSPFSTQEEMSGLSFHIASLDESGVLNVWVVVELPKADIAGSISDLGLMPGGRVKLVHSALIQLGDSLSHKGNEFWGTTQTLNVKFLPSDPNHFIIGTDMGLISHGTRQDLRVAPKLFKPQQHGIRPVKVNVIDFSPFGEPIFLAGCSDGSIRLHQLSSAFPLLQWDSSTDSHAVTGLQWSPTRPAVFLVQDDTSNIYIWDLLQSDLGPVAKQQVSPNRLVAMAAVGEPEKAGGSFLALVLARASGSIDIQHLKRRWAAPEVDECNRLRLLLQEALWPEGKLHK

Assays:
[1] = molecular target: IFT140 (human (endogenous in HEK-293T)) (UniProt Q96RY7); assay: co-IP; HEK-293T cells transfected with Flag-human WDR60 or Flag-human WDR34; lysate in 1% Triton X-100 buffer (20 mM Tris pH 7.5, 150 mM NaCl); IP with anti-IFT88 or anti-IFT140 antibody at 4°C overnight, Protein A + G agarose beads, washed in cold PBS; WDR60 or WDR34 detected by western blot
[2] = molecular target: T1, IFT88 (human (endogenous in HEK-293T)) (UniProt Q13099); assay: as above
T1 sequence: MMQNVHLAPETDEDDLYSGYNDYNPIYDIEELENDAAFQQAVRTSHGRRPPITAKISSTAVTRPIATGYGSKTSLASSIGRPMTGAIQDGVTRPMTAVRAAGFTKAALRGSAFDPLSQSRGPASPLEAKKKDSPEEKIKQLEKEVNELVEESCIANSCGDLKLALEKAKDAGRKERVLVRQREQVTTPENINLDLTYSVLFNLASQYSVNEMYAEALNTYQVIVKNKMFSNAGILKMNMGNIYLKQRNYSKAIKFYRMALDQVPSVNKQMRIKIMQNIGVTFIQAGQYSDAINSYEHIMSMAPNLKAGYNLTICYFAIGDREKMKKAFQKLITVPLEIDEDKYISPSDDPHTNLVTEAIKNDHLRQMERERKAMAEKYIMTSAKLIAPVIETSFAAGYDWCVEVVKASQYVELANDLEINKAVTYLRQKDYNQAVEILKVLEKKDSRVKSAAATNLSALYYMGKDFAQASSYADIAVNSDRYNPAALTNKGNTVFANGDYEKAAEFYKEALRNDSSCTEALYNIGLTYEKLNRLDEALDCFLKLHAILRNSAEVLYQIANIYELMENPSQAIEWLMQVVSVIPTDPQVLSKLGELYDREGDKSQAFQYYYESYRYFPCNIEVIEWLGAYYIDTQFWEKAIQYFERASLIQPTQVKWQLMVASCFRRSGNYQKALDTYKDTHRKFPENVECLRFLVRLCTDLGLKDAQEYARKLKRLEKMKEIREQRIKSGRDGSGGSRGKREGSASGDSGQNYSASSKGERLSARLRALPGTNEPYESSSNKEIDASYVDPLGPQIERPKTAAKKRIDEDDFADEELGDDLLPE

Row | binding [1] | binding [2] | Substance
1 | binds | binds | Flag-human WDR34 (WD repeat domain 34) (from UniProt Q96EX3 1-536)
2 | – | binds | Flag-human WDR60 (WD repeat domain 60) (from UniProt Q8WVS4 1-1066)
